This is an account of results in PMC8101327.

By UniProt entry, the sequences of proteins in these tests, tags left out.
UniProt Q05397: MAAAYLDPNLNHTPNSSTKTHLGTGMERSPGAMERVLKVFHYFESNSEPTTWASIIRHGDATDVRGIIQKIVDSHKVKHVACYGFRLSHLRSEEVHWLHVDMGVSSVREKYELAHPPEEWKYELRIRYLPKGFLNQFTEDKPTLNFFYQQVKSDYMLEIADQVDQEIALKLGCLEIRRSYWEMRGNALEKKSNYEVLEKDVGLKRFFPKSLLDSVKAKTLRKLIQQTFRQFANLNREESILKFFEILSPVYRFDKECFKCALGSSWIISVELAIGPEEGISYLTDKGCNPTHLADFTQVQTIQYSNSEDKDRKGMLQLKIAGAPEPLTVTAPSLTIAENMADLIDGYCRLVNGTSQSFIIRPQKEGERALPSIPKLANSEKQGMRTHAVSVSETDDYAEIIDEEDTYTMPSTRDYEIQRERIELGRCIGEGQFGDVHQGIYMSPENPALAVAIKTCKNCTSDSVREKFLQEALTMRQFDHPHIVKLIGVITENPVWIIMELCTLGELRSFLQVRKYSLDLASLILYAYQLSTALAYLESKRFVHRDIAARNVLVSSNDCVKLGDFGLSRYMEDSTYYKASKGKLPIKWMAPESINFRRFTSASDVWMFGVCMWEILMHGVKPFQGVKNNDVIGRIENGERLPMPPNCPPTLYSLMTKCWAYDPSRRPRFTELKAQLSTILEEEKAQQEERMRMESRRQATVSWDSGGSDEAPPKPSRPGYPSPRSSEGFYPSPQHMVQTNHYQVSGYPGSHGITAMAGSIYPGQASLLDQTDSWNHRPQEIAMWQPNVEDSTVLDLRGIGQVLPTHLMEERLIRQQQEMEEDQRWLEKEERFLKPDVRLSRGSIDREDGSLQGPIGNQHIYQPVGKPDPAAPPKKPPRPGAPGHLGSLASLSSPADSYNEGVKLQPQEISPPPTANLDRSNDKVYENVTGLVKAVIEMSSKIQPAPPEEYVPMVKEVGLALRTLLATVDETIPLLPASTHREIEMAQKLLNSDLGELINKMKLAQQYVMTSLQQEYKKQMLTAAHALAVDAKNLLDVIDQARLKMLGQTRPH

These are yes or no findings as the source states them, for the method shown. In cells and extracts the contact can be indirect. Some entries that bind do so weakly or less than the wild type.

This experiment has as its target focal adhesion kinase (FAK) (human (endogenous in MCF-7)) (UniProt Q05397). Kind of experiment: co-IP; MCF-7-EV and MCF-7-BAALC cell lysates (500 µg) incubated with BAALC antibody, FAK antibody or IgG control and Protein A/G agarose overnight at 4°C; beads washed 3 times in TBST; BAALC and FAK detected by western blotting. (A western blot detects proteins with antibodies after separation by electrophoresis.)

B1: Brain and Acute Leukemia, Cytoplasmic (BAALC) (protein, UniProt Q8WXS3 1-145)
chain: MGCGGSRADAIEPRYYESWTRETESTWLTYTDSDAPPSAAAPDSGPEAGGLHSGMLEDGLPSNGVPRSTAPGGIPNPEKKTNCETQCPNPQSLSSGPLTQKQNGLQTTEAKRDAKRMPAKEVTINVTDSIQQMDRSRRITKNCVN
Take B1: the binding entry is “binds”.
